# According to the supplement of paper PMC11542785:
# Structures can show the parent of a compound that is named as a salt. This is one part of the list. Single values are uncertain, as repeats are few or missing.
# System: Drosophila melanogaster DPAGT1 (Alg7) RNAi eye model
# Assay: eye size Z-score vs DMSO-treated DPAGT1 model flies; higher = larger eye (suppression of DPAGT1 phenotype)
# Details: 5 uM
structure (smiles),measurement,setting,value
COC(=O)[C@H]1[C@H]2C[C@@H]3c4[nH]c5cc(OC)ccc5c4CCN3C[C@H]2C[C@@H](OC(=O)c2cc(OC)c(OC)c(OC)c2)[C@@H]1OC [Reserpine],eye size Z-score,,-0.49
CNC(=C[N+](=O)[O-])NCCSCc1ccc(CN(C)C)o1 [Ranitidine hydrochloride],eye size Z-score,,-0.92
CC(C)C[C@H](NC(=O)[C@@H](O)[C@H](N)Cc1ccccc1)C(=O)O [Ubenimex],eye size Z-score,,0.08
CCOC(=O)[C@H](CCc1ccccc1)N[C@@H](C)C(=O)N1[C@H](C(=O)O)C[C@H]2CCCC[C@@H]21 [Trandolapril],eye size Z-score,,1.58
CC(C)(CO)[C@@H](O)C(=O)NCCCO [(D)-Panthenol],eye size Z-score,female,0.6
CCOc1ccccc1C(N)=O [Ethenzamide],eye size Z-score,,0.42
CCCCCCCCCCCCCCCC[N+](C)(C)CCN(Cc1ccc(OC)cc1)c1ncccn1 [Thonzonium bromide],eye size Z-score,,-0.07
C#C[C@]1(O)CC[C@H]2[C@@H]3CCc4cc(OC)ccc4[C@H]3CC[C@@]21C [Mestranol],eye size Z-score,,-0.32
CC(C)NCC(O)c1ccc(NS(C)(=O)=O)cc1 (stereo not given) [Sotalol hydrochloride],eye size Z-score,,1.22
CC(=O)N1CCN(c2ccc(OCC3COC(Cn4ccnc4)(c4ccc(Cl)cc4Cl)O3)cc2)CC1 (stereo not given) [Ketoconazole],eye size Z-score,,0.23
CN(CCOc1ccc(NS(C)(=O)=O)cc1)CCc1ccc(NS(C)(=O)=O)cc1 [Dofetilide],eye size Z-score,,0.49
COC(=O)C1=C(C)NC(C)=C(C(=O)OC)C1c1ccccc1[N+](=O)[O-] [Nifedipine],eye size Z-score,,0.72
CCN(CC)CCOC(=O)C1(c2ccc([N+](=O)[O-])cc2)CCCC1 [Nitrocaramiphen hydrochloride],eye size Z-score,,0.14
Clc1ccccc1CN1CCc2sccc2C1 [Ticlopidine hydrochloride],eye size Z-score,,1.42
Nc1ccc(O)c(C(=O)O)c1 [Mesalamine],eye size Z-score,,-0.57
Cc1cc(NC(=O)C2=C(O)c3ccccc3S(=O)(=O)N2C)no1 [Isoxicam],eye size Z-score,,0.19
Cc1cc(C(C)(C)CC(C)(C)C)ccc1OCCOCC[N+](C)(C)Cc1ccccc1 [Methyl benzethonium chloride],eye size Z-score,,0.35
CN(C)CCCN1c2ccccc2CCc2ccc(Cl)cc21 [Clomipramine hydrochloride],eye size Z-score,,0.5
CO[C@@]1(NC(=O)C2SC(=C(C(N)=O)C(=O)O)S2)C(=O)N2C(C(=O)O)=C(CSc3nnnn3C)CS[C@@H]21 (stereo not given in full) [Cefotetan],eye size Z-score,female,-1.33
C#C[C@]1(OC(C)=O)CC[C@H]2[C@@H]3CCC4=C[C@@H](OC(C)=O)CC[C@@H]4[C@H]3CC[C@@]21C [Ethynodiol diacetate],eye size Z-score,,-0.72

# Shown tab-delimited: part of the list above
structure (smiles)	measurement	setting	value
CC(=O)N1CCN(c2ccc(OCC3COC(Cn4ccnc4)(c4ccc(Cl)cc4Cl)O3)cc2)CC1 (stereo not given) [Ketoconazole]	eye size Z-score		0.23
CN(CCOc1ccc(NS(C)(=O)=O)cc1)CCc1ccc(NS(C)(=O)=O)cc1 [Dofetilide]	eye size Z-score		0.49
